The source of these data is the supplement of paper PMC10849652.

Protein sequences, listed by entry. Tags and fused reporters are not part of them. Lines headed by an entry give the natural chain unless they say otherwise; changes in a name come on top.
UniProt Q5BVD1: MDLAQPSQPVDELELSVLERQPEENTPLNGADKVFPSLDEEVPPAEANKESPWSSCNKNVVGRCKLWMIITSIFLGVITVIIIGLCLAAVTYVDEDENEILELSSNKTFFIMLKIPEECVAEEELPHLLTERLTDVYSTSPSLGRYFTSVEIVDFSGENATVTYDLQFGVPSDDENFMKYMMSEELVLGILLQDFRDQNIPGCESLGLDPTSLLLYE
UniProt Q9UJK0: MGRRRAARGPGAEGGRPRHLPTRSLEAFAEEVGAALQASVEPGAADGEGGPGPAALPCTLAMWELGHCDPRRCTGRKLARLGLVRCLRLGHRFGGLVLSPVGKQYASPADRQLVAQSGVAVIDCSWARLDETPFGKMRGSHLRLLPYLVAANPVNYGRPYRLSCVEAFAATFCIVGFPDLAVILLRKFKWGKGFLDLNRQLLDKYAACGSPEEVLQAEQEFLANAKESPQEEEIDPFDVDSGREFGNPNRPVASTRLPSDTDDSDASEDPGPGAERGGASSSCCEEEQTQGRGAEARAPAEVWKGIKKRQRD
UniProt Q9UL33, whole entry, looked up: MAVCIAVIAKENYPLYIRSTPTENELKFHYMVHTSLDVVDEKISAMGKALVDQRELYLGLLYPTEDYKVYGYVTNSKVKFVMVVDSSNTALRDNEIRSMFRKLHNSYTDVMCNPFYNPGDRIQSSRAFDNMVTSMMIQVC
UniProt Q99614: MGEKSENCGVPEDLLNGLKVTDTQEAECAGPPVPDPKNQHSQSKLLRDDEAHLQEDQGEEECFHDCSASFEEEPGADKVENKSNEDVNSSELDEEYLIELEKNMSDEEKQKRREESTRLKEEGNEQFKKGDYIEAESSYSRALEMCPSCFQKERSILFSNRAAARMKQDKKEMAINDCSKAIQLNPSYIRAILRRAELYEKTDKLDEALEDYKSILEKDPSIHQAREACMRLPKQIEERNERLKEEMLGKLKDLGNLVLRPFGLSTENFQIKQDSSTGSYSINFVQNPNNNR
UniProt Q6PJ69: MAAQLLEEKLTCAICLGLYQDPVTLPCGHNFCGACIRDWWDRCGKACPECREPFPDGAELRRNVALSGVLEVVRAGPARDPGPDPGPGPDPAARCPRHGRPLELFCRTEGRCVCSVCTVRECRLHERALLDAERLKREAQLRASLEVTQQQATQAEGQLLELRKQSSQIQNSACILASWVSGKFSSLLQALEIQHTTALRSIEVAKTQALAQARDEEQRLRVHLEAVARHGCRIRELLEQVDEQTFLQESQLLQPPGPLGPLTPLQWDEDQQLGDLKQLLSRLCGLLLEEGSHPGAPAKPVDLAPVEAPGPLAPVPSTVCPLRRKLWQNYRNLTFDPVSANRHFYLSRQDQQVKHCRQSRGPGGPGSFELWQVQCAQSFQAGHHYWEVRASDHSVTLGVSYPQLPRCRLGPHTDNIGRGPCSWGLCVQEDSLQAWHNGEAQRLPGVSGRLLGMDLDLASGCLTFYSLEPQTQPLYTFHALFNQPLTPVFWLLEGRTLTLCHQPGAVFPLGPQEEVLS
UniProt Q14258, whole entry, looked up: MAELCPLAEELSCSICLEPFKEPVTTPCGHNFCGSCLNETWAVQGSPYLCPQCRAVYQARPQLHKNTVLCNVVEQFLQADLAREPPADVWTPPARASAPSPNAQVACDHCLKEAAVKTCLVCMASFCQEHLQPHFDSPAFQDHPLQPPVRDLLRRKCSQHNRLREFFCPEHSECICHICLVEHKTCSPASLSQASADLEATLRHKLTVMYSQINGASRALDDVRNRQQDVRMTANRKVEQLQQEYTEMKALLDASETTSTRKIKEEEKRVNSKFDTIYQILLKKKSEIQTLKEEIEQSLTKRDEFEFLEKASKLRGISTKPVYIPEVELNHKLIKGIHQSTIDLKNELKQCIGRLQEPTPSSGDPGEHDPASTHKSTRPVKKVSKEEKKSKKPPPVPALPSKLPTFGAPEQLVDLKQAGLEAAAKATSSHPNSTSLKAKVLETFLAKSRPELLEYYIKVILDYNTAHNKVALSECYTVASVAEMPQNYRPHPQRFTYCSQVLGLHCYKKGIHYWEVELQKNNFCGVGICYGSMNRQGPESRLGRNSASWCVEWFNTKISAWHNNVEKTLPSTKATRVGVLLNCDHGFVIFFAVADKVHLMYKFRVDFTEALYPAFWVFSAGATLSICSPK
UniProt Q6DKK2: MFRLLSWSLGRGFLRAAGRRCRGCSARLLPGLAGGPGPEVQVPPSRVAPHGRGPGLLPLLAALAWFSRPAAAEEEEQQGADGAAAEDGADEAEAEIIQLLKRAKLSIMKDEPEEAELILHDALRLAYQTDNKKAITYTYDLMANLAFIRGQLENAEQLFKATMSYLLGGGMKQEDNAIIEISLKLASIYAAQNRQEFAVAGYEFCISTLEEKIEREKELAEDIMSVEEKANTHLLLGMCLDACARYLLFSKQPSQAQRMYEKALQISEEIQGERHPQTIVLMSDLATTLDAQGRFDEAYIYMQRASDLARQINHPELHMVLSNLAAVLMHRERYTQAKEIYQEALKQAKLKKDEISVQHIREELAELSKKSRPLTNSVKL
UniProt Q9BQ61: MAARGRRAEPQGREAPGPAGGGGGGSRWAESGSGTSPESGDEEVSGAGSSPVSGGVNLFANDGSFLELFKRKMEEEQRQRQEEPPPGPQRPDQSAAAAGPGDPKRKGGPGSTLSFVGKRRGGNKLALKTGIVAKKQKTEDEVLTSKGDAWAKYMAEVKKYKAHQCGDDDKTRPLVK
UniProt Q7Z4G4: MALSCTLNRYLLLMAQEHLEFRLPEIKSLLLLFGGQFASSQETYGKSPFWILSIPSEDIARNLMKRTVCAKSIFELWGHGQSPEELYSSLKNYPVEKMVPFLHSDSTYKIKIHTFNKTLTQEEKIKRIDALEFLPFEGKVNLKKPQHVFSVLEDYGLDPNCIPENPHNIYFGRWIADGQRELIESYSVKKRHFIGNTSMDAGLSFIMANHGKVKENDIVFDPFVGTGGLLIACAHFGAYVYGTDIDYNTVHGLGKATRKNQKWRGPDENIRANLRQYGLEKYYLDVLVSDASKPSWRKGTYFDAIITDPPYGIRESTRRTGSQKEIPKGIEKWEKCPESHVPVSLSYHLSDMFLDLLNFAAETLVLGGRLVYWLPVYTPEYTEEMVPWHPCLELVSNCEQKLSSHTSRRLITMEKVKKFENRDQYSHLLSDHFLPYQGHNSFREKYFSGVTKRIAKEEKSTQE
UniProt Q6PID6, whole entry, looked up: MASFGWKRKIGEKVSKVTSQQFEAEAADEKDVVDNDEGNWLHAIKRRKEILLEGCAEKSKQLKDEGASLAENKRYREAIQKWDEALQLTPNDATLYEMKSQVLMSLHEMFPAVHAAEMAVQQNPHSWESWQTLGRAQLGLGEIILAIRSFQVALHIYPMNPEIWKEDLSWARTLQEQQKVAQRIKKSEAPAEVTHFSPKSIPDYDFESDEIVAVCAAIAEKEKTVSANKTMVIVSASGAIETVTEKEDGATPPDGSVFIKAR
UniProt Q9Y5R8, whole entry, looked up: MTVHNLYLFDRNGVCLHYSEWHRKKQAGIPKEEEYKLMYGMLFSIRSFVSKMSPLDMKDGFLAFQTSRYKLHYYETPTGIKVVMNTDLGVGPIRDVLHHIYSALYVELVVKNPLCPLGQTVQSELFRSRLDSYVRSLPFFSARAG
UniProt Q8TEL6: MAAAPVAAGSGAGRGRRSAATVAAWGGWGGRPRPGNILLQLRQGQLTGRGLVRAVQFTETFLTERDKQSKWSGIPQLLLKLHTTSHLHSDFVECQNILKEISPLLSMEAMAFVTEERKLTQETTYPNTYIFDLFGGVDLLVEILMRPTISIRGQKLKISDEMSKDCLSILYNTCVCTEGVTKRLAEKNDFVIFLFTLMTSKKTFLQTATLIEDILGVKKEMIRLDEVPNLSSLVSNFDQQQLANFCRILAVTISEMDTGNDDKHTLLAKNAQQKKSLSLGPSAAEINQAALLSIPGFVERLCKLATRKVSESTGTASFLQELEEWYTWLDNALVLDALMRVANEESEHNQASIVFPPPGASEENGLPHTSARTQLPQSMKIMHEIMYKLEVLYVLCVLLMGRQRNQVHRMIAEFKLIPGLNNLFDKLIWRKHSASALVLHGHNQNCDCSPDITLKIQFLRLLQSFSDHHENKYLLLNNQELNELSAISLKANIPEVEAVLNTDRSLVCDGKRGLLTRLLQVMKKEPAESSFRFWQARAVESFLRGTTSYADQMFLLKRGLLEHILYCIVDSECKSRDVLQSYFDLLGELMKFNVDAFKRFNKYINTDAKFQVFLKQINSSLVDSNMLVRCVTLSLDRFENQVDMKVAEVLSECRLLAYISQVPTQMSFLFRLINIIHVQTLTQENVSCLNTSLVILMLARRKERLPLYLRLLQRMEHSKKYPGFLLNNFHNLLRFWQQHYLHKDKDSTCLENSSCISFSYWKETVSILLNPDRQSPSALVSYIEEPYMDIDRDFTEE
UniProt Q8WW01: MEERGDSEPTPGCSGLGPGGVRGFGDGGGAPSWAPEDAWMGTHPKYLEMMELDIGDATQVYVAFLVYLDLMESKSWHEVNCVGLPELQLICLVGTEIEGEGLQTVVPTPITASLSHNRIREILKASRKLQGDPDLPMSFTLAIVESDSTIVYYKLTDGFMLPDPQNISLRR
UniProt Q8WWH5: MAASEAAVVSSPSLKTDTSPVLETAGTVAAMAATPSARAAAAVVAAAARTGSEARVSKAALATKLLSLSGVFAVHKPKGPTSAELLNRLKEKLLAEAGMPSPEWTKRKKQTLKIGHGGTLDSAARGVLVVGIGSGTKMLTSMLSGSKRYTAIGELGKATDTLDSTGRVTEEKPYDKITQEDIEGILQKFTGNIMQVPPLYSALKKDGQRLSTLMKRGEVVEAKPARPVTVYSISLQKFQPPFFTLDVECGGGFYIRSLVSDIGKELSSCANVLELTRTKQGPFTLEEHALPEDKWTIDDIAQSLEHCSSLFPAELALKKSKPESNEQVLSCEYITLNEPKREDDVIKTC
UniProt Q99816: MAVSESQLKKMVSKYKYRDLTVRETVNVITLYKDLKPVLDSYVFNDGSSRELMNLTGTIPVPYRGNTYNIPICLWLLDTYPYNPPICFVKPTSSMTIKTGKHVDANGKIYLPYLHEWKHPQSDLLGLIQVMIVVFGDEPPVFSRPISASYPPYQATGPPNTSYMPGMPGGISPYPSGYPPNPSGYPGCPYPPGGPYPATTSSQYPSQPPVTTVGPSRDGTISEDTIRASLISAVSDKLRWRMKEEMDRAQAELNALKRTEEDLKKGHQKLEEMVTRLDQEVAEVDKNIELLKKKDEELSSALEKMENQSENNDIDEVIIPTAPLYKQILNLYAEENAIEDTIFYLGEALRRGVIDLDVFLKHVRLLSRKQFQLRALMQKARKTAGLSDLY
UniProt Q8NG68: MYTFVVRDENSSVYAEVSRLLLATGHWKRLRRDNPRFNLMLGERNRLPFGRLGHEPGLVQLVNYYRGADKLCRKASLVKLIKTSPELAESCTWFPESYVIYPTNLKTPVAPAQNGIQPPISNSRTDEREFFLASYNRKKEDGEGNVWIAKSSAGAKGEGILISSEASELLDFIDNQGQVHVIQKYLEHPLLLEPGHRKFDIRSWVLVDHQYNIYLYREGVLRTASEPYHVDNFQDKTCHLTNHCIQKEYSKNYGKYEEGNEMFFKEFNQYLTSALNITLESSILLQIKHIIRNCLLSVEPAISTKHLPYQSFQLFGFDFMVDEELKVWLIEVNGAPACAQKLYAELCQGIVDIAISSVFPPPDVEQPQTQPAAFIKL
UniProt Q12931: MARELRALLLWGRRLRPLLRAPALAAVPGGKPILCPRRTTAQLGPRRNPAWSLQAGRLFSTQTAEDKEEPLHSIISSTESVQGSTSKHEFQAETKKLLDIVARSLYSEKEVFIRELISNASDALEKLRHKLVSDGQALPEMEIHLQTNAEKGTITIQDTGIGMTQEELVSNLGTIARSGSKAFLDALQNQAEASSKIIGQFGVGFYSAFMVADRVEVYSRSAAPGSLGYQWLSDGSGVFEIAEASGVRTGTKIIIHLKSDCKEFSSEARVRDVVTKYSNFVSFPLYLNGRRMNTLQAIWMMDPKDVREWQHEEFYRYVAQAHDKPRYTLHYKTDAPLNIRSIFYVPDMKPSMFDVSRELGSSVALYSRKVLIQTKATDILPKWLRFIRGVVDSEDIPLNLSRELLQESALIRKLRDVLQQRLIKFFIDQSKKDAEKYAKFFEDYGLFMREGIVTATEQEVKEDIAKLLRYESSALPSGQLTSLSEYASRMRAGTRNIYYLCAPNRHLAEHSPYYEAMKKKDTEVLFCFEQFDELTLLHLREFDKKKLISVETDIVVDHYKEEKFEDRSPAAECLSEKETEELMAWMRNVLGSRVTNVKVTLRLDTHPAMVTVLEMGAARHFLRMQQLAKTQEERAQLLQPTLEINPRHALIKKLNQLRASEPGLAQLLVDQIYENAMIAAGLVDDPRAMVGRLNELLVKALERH
UniProt Q8NG11: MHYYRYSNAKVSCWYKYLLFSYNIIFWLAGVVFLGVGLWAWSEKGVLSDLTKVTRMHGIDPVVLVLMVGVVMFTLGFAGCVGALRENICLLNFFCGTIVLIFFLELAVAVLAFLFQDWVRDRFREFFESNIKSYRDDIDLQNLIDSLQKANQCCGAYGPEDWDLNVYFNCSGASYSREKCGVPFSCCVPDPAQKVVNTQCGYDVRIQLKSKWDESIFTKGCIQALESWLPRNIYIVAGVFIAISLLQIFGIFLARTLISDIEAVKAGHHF

This is one part of the list.

Compound in the first experiment: CC1=C(C=C(C=C1)NC(=O)C2=CC(=CC=C2)C(C)(C)C#N)NC3=CC4=C(C=C3)N=CN(C4=O)C
As to the kind of experiment: log2 fold change, soluble protein after heating vs DMSO (PISA); higher = thermal stabilisation; K562 lysate, 10 uM; active = over 0.2 and 3.5 SD of the protein, either way, in both replicates (recomputed). In outline:
(§1)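 The values are log-two fold changes in thermal stability compared with solvent controls and come from duplicates. They were obtained by TMTpro 16plex LC-MS/MS, with channel sums equalised, on the supernatant after 21,000xg for 90 min. That supernatant came from crude K562 extract at 1 mg/mL protein treated with 10 μM compound for 30 min, heated for 3 min across 48°C-58°C, pooled and brought to 0.5% NP-40 at 4°C.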
As to TTMP isoform 3 (UniProt Q5BVD1), the log2 fold change was inactive: 0.296.

For TSR3 (UniProt Q9UJK0), the log2 fold change was inactive: 0.101.

With TRAPPC2L (UniProt Q9UL33), the log2 fold change was inactive: 0.021.

For TTC1 (UniProt Q99614), the log2 fold change was inactive: -0.051.

For the target TRIM65 (UniProt Q6PJ69), the log2 fold change is inactive: 0.006.

Take TRIM25 (UniProt Q14258): the log2 fold change is inactive: 0.005.

Turning to TTC19 (UniProt Q6DKK2), the log2 fold change is inactive: 0.02.

Take TRIR (UniProt Q9BQ61): the log2 fold change was inactive: 0.024.

As for TRMT11 (UniProt Q7Z4G4), the log2 fold change was inactive: -0.028.

Compound in another experiment: CC1=C(C=C(C=C1)NC(=O)C2=CC(=CC=C2)N(C)C)NC(=O)C3=CC=C(C=C3)O
The description is as above. An outline of the steps: as §1
Consider TTLL12 (UniProt Q14166), for which the log2 fold change is inactive: 0.031.

In the case of TTC33 (UniProt Q6PID6), the log2 fold change is inactive: -0.043.

Regarding TRMT1 (UniProt Q9NXH9), the log2 fold change was inactive: 0.02.

For TRAPPC1 (UniProt Q9Y5R8), the log2 fold change is inactive: 0.025.

With TRPC4AP (UniProt Q8TEL6), the log2 fold change was inactive: 0.046.

On to TSC2 isoform 4 (UniProt P49815), for which the log2 fold change was inactive: -0.021.

Regarding TSEN15 (UniProt Q8WW01), the log2 fold change is inactive: -0.008.

As for TRUB1 (UniProt Q8WWH5), the log2 fold change was inactive: -0.007.

For the target TSG101 (UniProt Q99816), the log2 fold change is inactive: 0.022.

In the case of TTI1 (UniProt O43156), the log2 fold change was inactive: -0.009.

TTL (UniProt Q8NG68): the log2 fold change is inactive: 0.063.

Take TRMT6 (UniProt Q9UJA5): the log2 fold change is inactive: 0.004.

Take TTC5 (UniProt Q8N0Z6): the log2 fold change was inactive: 0.016.

Turning to TRIM33 isoform 2 (UniProt Q9UPN9), the log2 fold change is inactive: 0.019.

With TRNAU1AP (UniProt Q9NX07), the log2 fold change is inactive: 0.034.

Regarding TTI2 (UniProt Q6NXR4), the log2 fold change is inactive: -0.015.

On to TRMT5 (UniProt Q32P41), for which the log2 fold change is inactive: 0.034.

For the target TRIT1 (UniProt Q9H3H1), the log2 fold change is inactive: 0.008.

Consider TRMT10A (UniProt Q8TBZ6), for which the log2 fold change is inactive: -0.022.

Consider TRAP1 (UniProt Q12931), for which the log2 fold change is inactive: 0.003.

Consider TSPAN14 (UniProt Q8NG11), for which the log2 fold change was inactive: -0.016.

Regarding TRMT61A (UniProt Q96FX7), the log2 fold change is inactive: 0.052.

In the case of TRMT61B (UniProt Q9BVS5), the log2 fold change is inactive: -0.008.

Consider TTMP isoform 3 (UniProt Q5BVD1), for which the log2 fold change is inactive: -0.004.

With TSR3 (UniProt Q9UJK0), the log2 fold change is inactive: 0.018.

As to TRAPPC2L (UniProt Q9UL33), the log2 fold change was inactive: 0.005.

In the case of TTC1 (UniProt Q99614), the log2 fold change is inactive: -0.016.

Regarding TRIM65 (UniProt Q6PJ69), the log2 fold change is inactive: 0.003.

On to TRIM25 (UniProt Q14258), for which the log2 fold change is inactive: 0.004.

Turning to TTC19 (UniProt Q6DKK2), the log2 fold change was inactive: 0.016.

For TRIR (UniProt Q9BQ61), the log2 fold change was inactive: 0.007.

As to TRMT11 (UniProt Q7Z4G4), the log2 fold change was inactive: -0.023.

Compound in another experiment: CC1=CC=C(C=C1)SC2=C3C=C(SC3=CN=C2)C(=O)N
The experiment is described as above. In outline:
as §1
Turning to TTLL12 (UniProt Q14166), the log2 fold change was inactive: 0.012.

With TTC33 (UniProt Q6PID6), the log2 fold change is inactive: -0.057.

Consider TRMT1 (UniProt Q9NXH9), for which the log2 fold change was inactive: -0.006.

Turning to TRAPPC1 (UniProt Q9Y5R8), the log2 fold change was inactive: -0.001.

Regarding TRPC4AP (UniProt Q8TEL6), the log2 fold change was inactive: 0.083.

In the case of TSC2 isoform 4 (UniProt P49815), the log2 fold change was inactive: -0.008.

On to TSEN15 (UniProt Q8WW01), for which the log2 fold change was inactive: 0.019.

Turning to TRUB1 (UniProt Q8WWH5), the log2 fold change was inactive: 0.028.

As to TSG101 (UniProt Q99816), the log2 fold change was inactive: -0.023.

Turning to TTI1 (UniProt O43156), the log2 fold change is inactive: 0.026.

In the case of TTL (UniProt Q8NG68), the log2 fold change was inactive: -0.074.

As to TRMT6 (UniProt Q9UJA5), the log2 fold change is inactive: -0.003.

With TTC5 (UniProt Q8N0Z6), the log2 fold change is inactive: -0.001.

Regarding TRIM33 isoform 2 (UniProt Q9UPN9), the log2 fold change is inactive: 0.005.

With TRNAU1AP (UniProt Q9NX07), the log2 fold change was inactive: 0.021.

Regarding TTI2 (UniProt Q6NXR4), the log2 fold change was inactive: -0.017.

For TRMT5 (UniProt Q32P41), the log2 fold change is inactive: 0.022.

On to TRIT1 (UniProt Q9H3H1), for which the log2 fold change was inactive: 0.027.

For TRMT10A (UniProt Q8TBZ6), the log2 fold change is inactive: 0.07.

For TRAP1 (UniProt Q12931), the log2 fold change was inactive: 0.017.

Consider TSPAN14 (UniProt Q8NG11), for which the log2 fold change is inactive: -0.032.

Take TRMT61A (UniProt Q96FX7): the log2 fold change was inactive: 0.018.

As to TRMT61B (UniProt Q9BVS5), the log2 fold change is inactive: -0.015.

For TTMP isoform 3 (UniProt Q5BVD1), the log2 fold change was inactive: -0.099.

For TSR3 (UniProt Q9UJK0), the log2 fold change was inactive: -0.014.

On to TRAPPC2L (UniProt Q9UL33), for which the log2 fold change is inactive: -0.007.

As to TTC1 (UniProt Q99614), the log2 fold change is inactive: -0.026.

On to TRIM65 (UniProt Q6PJ69), for which the log2 fold change was inactive: -0.063.

In the case of TRIM25 (UniProt Q14258), the log2 fold change is inactive: 0.006.

For the target TTC19 (UniProt Q6DKK2), the log2 fold change is inactive: 0.015.

TRIR (UniProt Q9BQ61): the log2 fold change was inactive: -0.011.

For the target TRMT11 (UniProt Q7Z4G4), the log2 fold change was inactive: 0.03.
